According to patent EP4800035A1:
Results are given in words; binding and its absence hold for the method and conditions named. Some entries that bind do so weakly or less than the wild type.

By UniProt entry, the sequences of proteins in these tests, tags left out. Residues count along the entry.
UniProt P16871, residues 21-459: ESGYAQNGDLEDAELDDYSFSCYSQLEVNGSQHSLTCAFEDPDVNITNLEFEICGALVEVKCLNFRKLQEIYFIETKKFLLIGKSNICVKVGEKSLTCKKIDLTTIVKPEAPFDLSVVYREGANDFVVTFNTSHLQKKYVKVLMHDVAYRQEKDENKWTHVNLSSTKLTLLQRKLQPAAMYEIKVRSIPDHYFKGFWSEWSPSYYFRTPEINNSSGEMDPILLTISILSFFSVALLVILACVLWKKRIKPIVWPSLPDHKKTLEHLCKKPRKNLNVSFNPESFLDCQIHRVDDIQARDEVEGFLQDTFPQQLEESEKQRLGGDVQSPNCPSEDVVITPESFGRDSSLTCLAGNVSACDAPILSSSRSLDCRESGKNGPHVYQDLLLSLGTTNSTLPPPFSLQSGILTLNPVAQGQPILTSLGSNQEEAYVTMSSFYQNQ

Target: human interleukin-7 receptor (IL-7R) (human) (UniProt P16871)
Assay: flow cytometry on NALM6 and REH cells (FIG. 5, humanized clone)

B1: humanized anti-human IL-7R antibody clone 577 in the IgG1 format (antibody, V domains shown)
VH: EVQLVQSGAEVKKPGASVKVSCTVSGYTIKDTYIHWVKQAPEQGLEWMGRIDPASDDTKYDPKFQGKVTLTADTSINTAYLQLSSLTSEDTAVYYCVRRVYDYLDYWGQGTTVTVSS
VL: ETTLTQSPAFMSATMGDKVTISCMTSTDINDDMNWYQQKPGEPPILIIQEGNTLRPGIPPRFSGSGYGTDFTFTINNMLSEDAADYFCLQTDNLPLTFGGGTKLE
  binding: binds
